In PMC12305709, “Functional investigation of the RNA helicase MOV10 with respect to its interplay with factors involved in nonsense-mediated mRNA decay” (The Journal of Biological Chemistry, 2025):
Results are given in words; binding and its absence hold for the method and conditions named. Some binding calls cover weakened binding; strength is not graded here. Sequences can lack the tags named with a protein.

Experiments:
GST-UPF1hel (human) = molecular target: T1, GST-UPF1hel (human) (UniProt Q92900); experiment: pull-down; GST-fused bait and prey (8-12 ug each) mixed in GST-PD buffer (20 mM Hepes pH 7.5, 100 mM NaCl, 10% glycerol, 0.1% NP40), 45 min room temperature, captured on Glutathione Sepharose at 4 C, eluted with glutathione; SDS-PAGE, Coomassie; both purified
T1 sequence: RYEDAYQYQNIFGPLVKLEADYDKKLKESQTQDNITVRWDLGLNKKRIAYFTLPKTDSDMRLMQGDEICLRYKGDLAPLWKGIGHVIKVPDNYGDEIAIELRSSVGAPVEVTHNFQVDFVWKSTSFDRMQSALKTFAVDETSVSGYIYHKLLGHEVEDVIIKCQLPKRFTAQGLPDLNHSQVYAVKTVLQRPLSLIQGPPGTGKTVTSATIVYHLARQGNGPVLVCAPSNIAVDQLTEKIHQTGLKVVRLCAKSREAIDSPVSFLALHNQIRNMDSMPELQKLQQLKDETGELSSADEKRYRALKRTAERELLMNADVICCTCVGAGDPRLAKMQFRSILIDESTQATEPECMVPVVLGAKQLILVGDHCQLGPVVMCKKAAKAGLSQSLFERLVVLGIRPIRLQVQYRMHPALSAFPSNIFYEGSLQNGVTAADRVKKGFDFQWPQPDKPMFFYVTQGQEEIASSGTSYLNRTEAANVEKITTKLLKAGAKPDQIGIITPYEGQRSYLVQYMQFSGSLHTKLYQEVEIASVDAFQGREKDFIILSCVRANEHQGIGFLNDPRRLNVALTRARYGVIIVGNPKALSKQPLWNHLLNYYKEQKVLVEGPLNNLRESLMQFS

[1] = molecular target: T2, Flag-tagged full-length UPF1 (human) (UniProt Q92900); experiment: co-IP; as a2, but cell lysates treated with RNase A (60 ug/uL, 10 min, 25 C); SDS-PAGE, Coomassie, densitometry of the UPF2 band; both purified
T2 sequence: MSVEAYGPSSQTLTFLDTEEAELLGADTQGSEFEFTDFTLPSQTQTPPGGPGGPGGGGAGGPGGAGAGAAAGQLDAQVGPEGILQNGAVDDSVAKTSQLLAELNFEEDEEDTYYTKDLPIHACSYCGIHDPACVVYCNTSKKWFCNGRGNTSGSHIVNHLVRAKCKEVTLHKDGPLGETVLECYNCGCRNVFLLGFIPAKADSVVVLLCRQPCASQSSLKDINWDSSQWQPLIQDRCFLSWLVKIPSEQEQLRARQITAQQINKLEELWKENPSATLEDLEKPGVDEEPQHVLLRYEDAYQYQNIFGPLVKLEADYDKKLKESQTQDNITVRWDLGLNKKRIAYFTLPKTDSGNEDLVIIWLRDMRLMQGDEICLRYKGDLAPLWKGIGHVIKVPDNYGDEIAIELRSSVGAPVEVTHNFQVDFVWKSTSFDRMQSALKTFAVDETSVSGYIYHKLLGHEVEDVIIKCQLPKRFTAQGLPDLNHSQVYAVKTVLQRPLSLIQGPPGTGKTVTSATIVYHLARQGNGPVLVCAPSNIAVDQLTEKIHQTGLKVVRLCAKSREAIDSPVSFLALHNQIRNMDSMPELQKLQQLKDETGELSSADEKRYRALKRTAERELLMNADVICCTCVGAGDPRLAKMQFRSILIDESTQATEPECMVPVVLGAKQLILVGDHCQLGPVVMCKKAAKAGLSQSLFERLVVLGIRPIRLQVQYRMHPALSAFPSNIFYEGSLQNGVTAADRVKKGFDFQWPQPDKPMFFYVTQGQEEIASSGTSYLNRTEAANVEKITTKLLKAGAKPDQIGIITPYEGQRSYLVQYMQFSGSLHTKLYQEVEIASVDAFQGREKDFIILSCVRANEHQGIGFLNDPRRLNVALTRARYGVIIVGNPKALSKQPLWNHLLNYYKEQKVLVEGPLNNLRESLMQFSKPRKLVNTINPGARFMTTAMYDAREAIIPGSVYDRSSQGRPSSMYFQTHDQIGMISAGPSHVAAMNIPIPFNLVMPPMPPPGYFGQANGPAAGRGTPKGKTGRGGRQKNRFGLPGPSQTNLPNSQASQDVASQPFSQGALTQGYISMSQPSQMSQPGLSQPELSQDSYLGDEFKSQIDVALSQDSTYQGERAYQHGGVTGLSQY

Flag-MOV10NTD (human) = molecular target: T3, Flag-MOV10NTD (human) (UniProt Q9HCE1); experiment: as above
T3 sequence: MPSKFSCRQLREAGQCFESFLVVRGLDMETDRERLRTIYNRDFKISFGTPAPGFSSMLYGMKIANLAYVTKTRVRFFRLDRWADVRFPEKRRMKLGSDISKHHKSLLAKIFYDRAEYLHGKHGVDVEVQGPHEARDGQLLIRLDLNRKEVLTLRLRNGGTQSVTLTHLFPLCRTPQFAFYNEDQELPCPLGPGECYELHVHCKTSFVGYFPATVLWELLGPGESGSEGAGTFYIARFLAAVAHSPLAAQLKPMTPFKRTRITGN

[2] = molecular target: T4, Flag-tagged human MOV10 (full length) (human) (UniProt Q9HCE1); experiment: as above
T4 sequence: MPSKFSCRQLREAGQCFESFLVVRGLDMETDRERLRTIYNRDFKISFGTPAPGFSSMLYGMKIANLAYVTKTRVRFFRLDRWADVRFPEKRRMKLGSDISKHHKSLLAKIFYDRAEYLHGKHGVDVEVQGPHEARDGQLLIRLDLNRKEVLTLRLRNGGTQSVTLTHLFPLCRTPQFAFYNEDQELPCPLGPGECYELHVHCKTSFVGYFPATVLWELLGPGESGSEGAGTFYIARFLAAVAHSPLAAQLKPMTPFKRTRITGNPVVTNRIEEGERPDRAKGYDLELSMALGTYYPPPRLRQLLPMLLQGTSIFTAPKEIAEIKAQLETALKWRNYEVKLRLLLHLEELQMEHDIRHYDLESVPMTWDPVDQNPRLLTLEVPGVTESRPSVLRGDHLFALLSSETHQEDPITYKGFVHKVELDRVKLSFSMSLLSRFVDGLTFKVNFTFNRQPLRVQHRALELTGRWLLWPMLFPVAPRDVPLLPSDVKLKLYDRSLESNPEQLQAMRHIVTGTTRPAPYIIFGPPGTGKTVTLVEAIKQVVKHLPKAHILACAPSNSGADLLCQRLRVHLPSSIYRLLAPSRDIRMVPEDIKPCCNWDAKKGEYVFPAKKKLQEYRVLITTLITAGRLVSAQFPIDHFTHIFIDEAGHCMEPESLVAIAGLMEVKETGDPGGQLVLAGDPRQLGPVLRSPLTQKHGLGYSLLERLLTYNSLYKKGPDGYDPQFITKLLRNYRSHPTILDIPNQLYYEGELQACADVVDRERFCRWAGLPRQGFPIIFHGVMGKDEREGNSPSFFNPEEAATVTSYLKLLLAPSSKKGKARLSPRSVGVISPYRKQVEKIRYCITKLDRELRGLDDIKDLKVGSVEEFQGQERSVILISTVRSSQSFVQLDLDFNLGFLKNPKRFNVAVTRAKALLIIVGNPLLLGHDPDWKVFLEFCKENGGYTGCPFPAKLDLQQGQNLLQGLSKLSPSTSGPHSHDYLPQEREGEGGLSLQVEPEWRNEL

[3] = molecular target: T2, Flag-tagged full-length UPF1 (human); experiment: co-IP; Flag-tagged bait immunopurified from HEK293 lysate on anti-Flag M2 agarose, 4-8 ug purified prey added for 45 min; washed with 20 mM Hepes pH 7.5, 70 mM NaCl, 10% glycerol, 1 mM MgCl2, 1 uM ZnCl2; SDS-PAGE, Coomassie; without RNase A; both purified
[4] = molecular target: T4, Flag-tagged human MOV10 (full length) (human); experiment: as above

B1: UPF2 (near full-length variant, residues 121-1227) (domain or fragment, human, UniProt Q9HAU5 121-1227, looked up)
chain: MKEKEESIQLHQEAWERHHLRKELRSKNQNAPDSRPEENFFSRLDSSLKKNTAFVKKLKTITEQQRDSLSHDFNGLNLSKYIAEAVASIVEAKLKISDVNCAVHLCSLFHQRYADFAPSLLQVWKKHFEARKEEKTPNITKLRTDLRFIAELTIVGIFTDKEGLSLIYEQLKNIINADRESHTHVSVVISFCRHCGDDIAGLVPRKVKSAAEKFNLSFPPSEIISPEKQQPFQNLLKEYFTSLTKHLKRDHRELQNTERQNRRILHSKGELSEDRHKQYEEFAMSYQKLLANSQSLADLLDENMPDLPQDKPTPEEHGPGIDIFTPGKPGEYDLEGGIWEDEDARNFYENLIDLKAFVPAILFKDNEKSCQNKESNKDDTKEAKESKENKEVSSPDDLELELENLEINDDTLELEGGDEAEDLTKKLLDEQEQEDEEASTGSHLKLIVDAFLQQLPNCVNRDLIDKAAMDFCMNMNTKANRKKLVRALFIVPRQRLDLLPFYARLVATLHPCMSDVAEDLCSMLRGDFRFHVRKKDQINIETKNKTVRFIGELTKFKMFTKNDTLHCLKMLLSDFSHHHIEMACTLLETCGRFLFRSPESHLRTSVLLEQMMRKKQAMHLDARYVTMVENAYYYCNPPPAEKTVKKKRPPLQEYVRKLLYKDLSKVTTEKVLRQMRKLPWQDQEVKDYVICCMINIWNVKYNSIHCVANLLAGLVLYQEDVGIHVVDGVLEDIRLGMEVNQPKFNQRRISSAKFLGELYNYRMVESAVIFRTLYSFTSFGVNPDGSPSSLDPPEHLFRIRLVCTILDTCGQYFDRGSSKRKLDCFLVYFQRYVWWKKSLEVWTKDHPFPIDIDYMISDTLELLRPKIKLCNSLEESIRQVQDLEREFLIKLGLVNDKDSKDSMTEGENLEEDEEEEEGGAETEEQSGNESEVNEPEEEEGSDNDDDEGEEEEEENTDYLTDSNKENETDEENTEVMIKGGGLKHVPCVEDEDFIQALDKMMLENLQQRSGESVKVHQLDVAIPLHLKSQLRKGPPLGGGEGEAESADTMPFVMLTRKGNKQQFKILNVPMSSQLAANHWNQQQAEQEERMRMKKLTLDINERQEQED
notes: UPF2, human, residues 121-1227; also called near full-length UPF2
binding (GST-UPF1hel (human)): no binding (tested: 8-12 ug of bait and of prey in 40 ul)
binding [1]: binds
binding (Flag-MOV10NTD (human)): binds
binding [2]: binds
binding [3]: binds
binding [4]: binds weakly
